From publication PMC4242493
The exact form of at least one protein or probe is not confirmed. A weaker result is weaker than the reference pair of the same experiment.

By UniProt entry, the sequences of proteins in these tests, tags left out.
UniProt P61244, whole entry: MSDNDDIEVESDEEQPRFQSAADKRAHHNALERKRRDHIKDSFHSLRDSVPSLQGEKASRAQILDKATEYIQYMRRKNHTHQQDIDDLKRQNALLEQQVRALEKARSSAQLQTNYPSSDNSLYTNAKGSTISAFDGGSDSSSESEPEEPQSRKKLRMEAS

Molecular target: MaxL (UniProt P61244)
Experiment: PBM
Settings: 10 nM MaxL homodimer, 4- or 5-fold reduction vs GCACGTGC; recombinant protein; protein details: C-terminal His-tag (pET21a)

“TCACGTGA (double strand) [PBM 8-mer TCACGTGA]”: binds more weakly.
